Measured data: PubChem BioAssay AID1053208 (Peter MacCallum Cancer Centre, 2014)
Here is an unselected part of about 17,000 reagents. 788 of them (4.7%) count as active. 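Calls rest on z-score classes alone; an extra cut-off of viability at most 70% of control was not applied to them.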 Unmarked entries are inactive. Reagents against one gene are numbered here. Not all columns of the deposit are shown.

Test: 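Genes whose silencing cuts survival of bone tumour cells only with doxorubicin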 (primary screen)
System: mouse osteosarcoma cells, early-passage culture from an engineered mouse model of fibroblastic bone tumour
Reagents: siRNA pool against mouse genes, 40 nM
Time to read-out: about 120 h (48 h before drug, then 72 h with drug)
Treatment: doxorubicin 100 nM for 72 h, roughly 30-40% inhibitory dose
Measurement: 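Luminescent ATP signal taken as viability with or without 100 nM doxorubicin for 72 h; mean of two wells set against non-targeting siRNA and turned into robust z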
Direction: viability z-score with doxorubicin: higher = more viable cells under doxorubicin; viability z-score without drug: higher = more viable cells with knock-down alone
Active means: 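a pool counts as active when its viability z-score with doxorubicin is -2 or below and its z-score without drug lies between -2 and 2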

target gene	pool no.	combined z-score class	viability z-score with doxorubicin	viability z-score without drug
Pef1	1	no change with or without drug	1.69	1.01
Adamts3	1	no change with or without drug	0	-0.51
Pgap4	1	no change with or without drug	-1.57	-0.67
Armcx1	1	no change with or without drug	-0.56	-0.84
Vmn1r65	1	no change with or without drug	-0.22	0.51
Pbrm1	1	no change with or without drug	0.22	-0.51
Dnajb13	1	no change with or without drug	0.34	1.35
Apbb1	1	no change with or without drug	0.45	0.17
Chchd4	1	no change with or without drug	-0.9	1.18
B4galnt2	1	no change with or without drug	1.12	0.51
Rho	1	no change with or without drug	0.45	-1.01
Cemip2	1	high cell count without drug only	1.91	2.53
Rps27a	1	low cell count with and without drug	-7.87	-7.25
Cnga3	1	no change with or without drug	-0.56	0.17
Tcf19	1	no change with or without drug	0.34	1.52
Syt1	1	no change with or without drug	1.35	1.69
Pabir3	1	no change with or without drug	-0.22	1.85
Suox	1	no change with or without drug	-0.67	-1.01
Smpd4	1	no change with or without drug	-1.12	-0.51

Next part (7 carried over from the part before).
target gene	pool no.	combined z-score class	viability z-score with doxorubicin	viability z-score without drug
Rps27a	1	low cell count with and without drug	-7.87	-7.25
Cnga3	1	no change with or without drug	-0.56	0.17
Tcf19	1	no change with or without drug	0.34	1.52
Syt1	1	no change with or without drug	1.35	1.69
Pabir3	1	no change with or without drug	-0.22	1.85
Suox	1	no change with or without drug	-0.67	-1.01
Smpd4	1	no change with or without drug	-1.12	-0.51
Mrgprg	1	no change with or without drug	-0.67	-0.84
Or5d20	1	low cell count with and without drug	-3.37	-4.22
Otop2	1	no change with or without drug	-1.8	-1.18
Susd2	1	no change with or without drug	0.22	0.34
Ssrp1	1	no change with or without drug	0.9	0.67
Nup98	1	low cell count with and without drug	-7.76	-9.61
Gbp3	1	no change with or without drug	-0.45	-0.51
Il34	1	no change with or without drug	1.12	0.84
Cenpn	1	no change with or without drug	-1.24	-0.17
Rps9	1	low cell count with and without drug	-7.31	-8.43
Rassf10	1	no change with or without drug	0	-1.85
Pde4a	1	no change with or without drug	0.11	-0.17
Ext2	1	no change with or without drug	-0.67	-0.17
Rps2	1	low cell count with and without drug	-3.15	-2.53
Utp15	1	no change with or without drug	0.79	0.17
L3mbtl4	1	no change with or without drug	1.01	0.51
L3mbtl4	2	no change with or without drug	-0.11	-1.01
Hfm1	1	no change with or without drug	-1.35	-0.17
Usp50	1	low cell count with doxorubicin only (active)	-2.02	0.67
Rnf32	1	no change with or without drug	0.34	-0.51
Or8b48	1	no change with or without drug	0.79	-0.17
Dolk	1	no change with or without drug	0.79	1.01
Cd84	1	no change with or without drug	1.8	1.01
Rbmy	1	no change with or without drug	0.22	-0.17
Prodh	1	no change with or without drug	-0.22	-1.01
Fbxw15	1	no change with or without drug	-1.12	-0.51
Gpa33	1	no change with or without drug	1.91	-0.17
Selenbp2	1	no change with or without drug	-1.46	-0.17
Paqr7	1	no change with or without drug	-0.34	-0.67
Folr1	1	no change with or without drug	0.9	1.01
Casr	1	high cell count with doxorubicin only	2.25	1.69
